Structures can show the parent of a compound that is named as a salt. This is one part of the list. Single values are uncertain here, since repeats match poorly.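 Fusion between ACE2-bearing and full-length-spike-bearing U2OS cells was measured by imaging as the percentage of nuclei with both cell types' fluorescent markers. An inhibitory hit is a non-toxic compound whose fusion z-score is below -3, more than three standard deviations beneath the plate's DMSO wells.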
test system: U2OS ACE2 x SARS-CoV-2 spike co-culture; assay: cell-cell fusion (fraction fused) z-score vs plate DMSO control; higher = more fusion; conditions: 30 µM; 5 h; toxicity class: non-toxic, passed QC

Row | Compound | cell-cell fusion (z-score)
1 | COc1ccc(OC)c(C(O)CNC(=O)CN)c1.Cl (stereo not given) | inactive: 2.68
2 | Cl.O=C(N[C@H]1CN2CCC1CC2)c1ccc(Cl)cc1 | inactive: 2.3
3 | CNC[C@H](O)[C@@H](O)[C@H](O)[C@H](O)CO.Cc1c(Nc2ncccc2C(=O)O)cccc1C(F)(F)F | inactive: 1.52
4 | O=C1NS(=O)(=O)c2ccccc21 | inactive: 3.98
5 | CC(C)N(CCCCOCC(=O)NS(C)(=O)=O)c1cnc(-c2ccccc2)c(-c2ccccc2)n1 [Selexipag] | inactive: 0.642
6 | C[N+]1(C)[C@@H]2C[C@@H](OC(=O)[C@H](CO)c3ccccc3)C[C@H]1[C@@H]1O[C@@H]12.[Br-] [Methscopolamine] | inactive: 2.26
7 | CCOC(=O)C(C)(C)Oc1ccc(Cl)cc1 | inactive: 2.64
8 | CCOC(=O)C(C)(C)Oc1ccc(Cl)cc1 [Clofibrate] | inactive: 0.213
9 | CN(C)CCCOc1nn(Cc2ccccc2)c2ccccc12.Cl | inactive: 2.52
10 | Cn1c(=O)c2[nH]cnc2n(C)c1=O | inactive: 2.01
11 | C[C@@H]1CC2C3C[C@H](F)C4=CC(=O)C=C[C@]4(C)[C@@]3(F)[C@@H](O)C[C@]2(C)[C@@]1(O)C(=O)CO (stereo not given in full) | inactive: 1.25
12 | O=S(=O)([O-])c1cc(I)c(O)c2ncccc12.[Na+] | inactive: 0.679
13 | C#C[C@]1(O)CC[C@H]2[C@@H]3CCC4=CC(=O)CC[C@@H]4[C@H]3C(=C)C[C@@]21CC [Etonogestrel] | inactive: 1.86
14 | CC[C@@H]1/C=C(\C)C[C@H](C)C[C@H](OC)[C@H]2O[C@@](O)(C(=O)C(=O)N3CCCC[C@H]3C(=O)O[C@H](/C(C)=C/[C@@H]3CC[C@H](Cl)[C@H](OC)C3)[C@H](C)[C@@H](O)CC1=O)[C@H](C)C[C@@H]2OC [Pimecrolimus] | active: -4.63
15 | COc1cc2c(cc1OC)C1C(=O)c3c(O)cc4c(c3OC1CO2)C=CC(C)(C)O4 (stereo not drawn) [alpha-TOXICAROL (dl)] | inactive: 1.96
16 | CC(CO)NC(=O)C1C=C2c3cccc4[nH]cc(c34)C[C@H]2N(C)C1.O=C(O)/C=C\C(=O)O (stereo not given in full) | inactive: -1.64
17 | COC(=O)C1=C(C)NC(C)=C(C(=O)OCCN(C)Cc2ccccc2)C1c1cccc([N+](=O)[O-])c1.Cl (stereo not given) | inactive: 4.45
18 | COC(=O)C1=C(C)NC(C)=C(C(=O)OCCN(C)Cc2ccccc2)C1c1cccc([N+](=O)[O-])c1.Cl (stereo not given) [Nicardipine hydrochloride] | inactive: 3.1
19 | CNC(=O)c1ccc(-c2cnc3ncc(Cc4ccc5ncccc5c4)n3n2)cc1F | inactive: 1.43
20 | O=C1c2ccccc2C(=O)C1c1ccccc1 | inactive: 1.9
21 | CNC(C)C(O)c1ccccc1.Cl (stereo not given) | inactive: 0.279
22 | NC(=O)N/N=C/c1ccc([N+](=O)[O-])o1 | inactive: 1.9

Row | Compound | cell-cell fusion (z-score)
23 | CNC(=O)c1cc(Oc2ccc(NC(=O)Nc3ccc(Cl)c(C(F)(F)F)c3)cc2)ccn1.Cc1ccc(S(=O)(=O)O)cc1 [Sorafenib tosylate] | inactive: 1.65
24 | CCN[C@@H]1C[C@H](N)[C@@H](O[C@H]2OC(CN)=CC[C@H]2N)[C@H](O)[C@H]1O[C@H]1OC[C@](C)(O)[C@H](NC)[C@H]1O.CCN[C@@H]1C[C@H](N)[C@@H](O[C@H]2OC(CN)=CC[C@H]2N)[C@H](O)[C@H]1O[C@H]1OC[C@](C)(O)[C@H](NC)[C@H]1O.O=S(=O)(O)O.O=S(=O)(O)O.O=S(=O)(O)O.O=S(=O)(O)O.O=S(=O)(O)O [Netilmicin sulfate] | inactive: 0.825
25 | COc1nc2ccc(Br)cc2cc1[C@@H](c1ccccc1)[C@@](O)(CCN(C)C)c1cccc2ccccc12 [Bedaquiline] | inactive: 0.0102
26 | CCOC(=O)[C@@H](N)Cc1ccc(O)c(O)c1 [L-Dopa ethyl ester] | inactive: 2.73
27 | CC1=C(/C=C/C(C)=C/C=C/C(C)=C/C(=O)O)C(C)(C)CCC1 [Tretinoin] | inactive: 1.64
28 | CC(C)(O)CNc1nc(Nc2ccnc(C(F)(F)F)c2)nc(-c2cccc(C(F)(F)F)n2)n1 [Enasidenib] | inactive: -2.7
29 | CCC[C@H](N[C@@H](C)C(=O)N1[C@H](C(=O)O)C[C@@H]2CCCC[C@@H]21)C(=O)O | inactive: 1.86
30 | CCOC(=O)[N-]c1c[n+](N2CCOCC2)no1 | inactive: 2.19
31 | CCOC(=O)[N-]c1c[n+](N2CCOCC2)no1 [Molsidomine] | inactive: 3
32 | CO[C@@]1(NC(=O)CSCC#N)C(=O)N2C(C(=O)[O-])=C(CSc3nnnn3C)CSC21.[Na+] (stereo not given in full) | inactive: 2.29
33 | C#Cc1cccc(Nc2ncnc3cc(OCCOC)c(OCCOC)cc23)c1 [Erlotinib HCl (OSI-744)] | active: -4.26
34 | OC[C@@H]1OC2OC3[C@@H](O)C(O)C(OC4[C@H](O)C(O)C(OC5[C@H](O)C(O)C(OC6[C@@H](O)C(O)C(OC7[C@@H](O)C(O)C(OC8[C@H](O)C(O)C(OC1[C@H](O)C2O)O[C@H]8CO)O[C@@H]7CO)O[C@@H]6CO)O[C@H]5CO)O[C@H]4CO)O[C@@H]3CO (stereo partly drawn) [beta-CYCLODEXTRIN] | inactive: 2.68
35 | CN(C)C[C@H]1CCn2cc(c3ccccc32)C2=C(C(=O)NC2=O)c2cn(c3ccccc23)CCO1.CS(=O)(=O)O | inactive: -0.34
36 | Nc1ncnc2c1ncn2[C@@H]1O[C@H](CO)[C@@H](O)[C@@H]1O [Vidarabine] | inactive: 1.87
37 | Nc1ccc(S(N)(=O)=O)cc1 | inactive: 2.68
38 | Cn1c(Nc2ccc(C(F)(F)F)cc2)nc2cc(Oc3ccnc(-c4ncc(C(F)(F)F)[nH]4)c3)ccc21 | active: -16.1
39 | O=C(O)CCc1nc(-c2ccccc2)c(-c2ccccc2)o1 [Oxaprozin] | inactive: 2.84
40 | CC(=O)OCC(=O)[C@@]12N=C(C)O[C@@H]1C[C@H]1[C@@H]3CCC4=CC(=O)C=C[C@]4(C)[C@H]3[C@@H](O)C[C@@]12C [Deflazacort] | inactive: 0.914
41 | CN(C)CCCNc1c2c(=O)n(C)c(=O)nc-2n(C)c2ccccc12.Cl.Cl | inactive: 1.31
42 | CCN(C)C(=O)Oc1cccc([C@H](C)N(C)C)c1.O=C(O)[C@H](O)[C@@H](O)C(=O)O [Rivastigmine tartrate] | inactive: 2.49
43 | NC(CSCSCC(N)C(=O)O)C(=O)O (stereo not given) | inactive: 2.19
44 | Cc1ccc(O)cc1 | inactive: 0.0699

Row | Compound | cell-cell fusion (z-score)
45 | Cn1cnc([N+](=O)[O-])c1Sc1ncnc2nc[nH]c12 [Azathioprine] | inactive: 2.04
46 | CNC(=O)[C@@H](NC(=O)[C@H](CC(C)C)[C@H](O)C(=O)NO)C(C)(C)C [Marimastat] | inactive: 0.246
47 | Cn1cc[nH]c1=S | inactive: -0.133
48 | CC1CNCCN1S(=O)(=O)c1cccc2cnccc12.Cl.Cl (stereo not given) | inactive: 0.0784
49 | Cc1cc(-c2ccc(/N=N/c3ccc4c(S(=O)(=O)[O-])cc(S(=O)(=O)[O-])c(N)c4c3O)c(C)c2)ccc1/N=N/c1ccc2c(S(=O)(=O)[O-])cc(S(=O)(=O)[O-])c(N)c2c1O.[Na+].[Na+].[Na+].[Na+] | inactive: 0.578
50 | CNCC[C@@H](Oc1ccccc1C)c1ccccc1.Cl [Atomoxetine hydrochloride] | inactive: 2.87
51 | CCNC(=O)[C@H]1O[C@@H](n2cnc3c(N)nc(NCCc4ccc(CCC(=O)O)cc4)nc32)C(O)[C@H]1O.Cl (stereo not given in full) | inactive: 2.76
52 | COCCN1C2=C(C(=O)c3ccccc3C2=O)N(Cc2cnccn2)C1C.[Br-] (stereo not given) | inactive: -1.62
53 | CN1[C@@H](CC(=O)c2ccccc2)CCC[C@H]1C[C@H](O)c1ccccc1.Cl [alpha-Lobeline hydrochloride] | inactive: 2.72
54 | N.N.O=C([O-])C1(C(=O)[O-])CCC1.[Pt+2] [Carboplatin] | inactive: 2.19
55 | COC(=O)C(C)(N)Cc1ccc(O)cc1.Cl (racemic) [alpha-Methyl-DL-tyrosine methyl ester hydrochloride] | inactive: 2.59
56 | CCCC(=O)Nc1ccc(OCC(O)CNC(C)C)c(C(C)=O)c1.Cl (stereo not given) | inactive: 2.06
57 | CN(C)CCCN1c2ccccc2Sc2ccc(Cl)cc21.Cl [Chlorpromazine hydrochloride] | inactive: 1.38
58 | CC(=O)Oc1c2c(c(CC=C(C)C)c3c1C(=O)C1=C[C@@H]4CC5C(C)(C)OC(C/C=C(\C)C(=O)O)(C4=O)[C@@]15O3)OC(C)(CCC=C(C)C)C=C2 (stereo not given in full) | inactive: 1.38
59 | NC(=S)c1ccc[n+]([C@@H]2O[C@@H](COP(=O)([O-])OP(=O)(O)OC[C@H]3O[C@@H](n4cnc5c(N)ncnc54)C(OP(=O)([O-])O)[C@H]3O)C(O)C2O)c1.[Na+] (stereo not given in full) [Thio-NADP sodium] | inactive: 2.14
60 | COc1ccc(O)cc1 [4-Methoxyphenol] | inactive: 2.33
61 | COc1cccc2cc(-c3nc([C@H]4CC[C@H](C(=O)O)CC4)n4ncnc(N)c34)[nH]c12 | inactive: 0.831
62 | CC(=O)O[C@@H]1CC2C(C)(C)C(=O)CC[C@]2(C)C2CC[C@@]3(C)[C@H](c4ccoc4)OC(=O)C4OC43[C@@]21C (stereo not given in full) | inactive: 1.95
63 | NCCc1cnc[nH]1 [Histamine] | inactive: 1.23
64 | CCCCCCCCCCCCCCCCCCCCCCO [n-Docosanol] | inactive: 2.45
65 | CCCCCCCCCCCCCCCCCCCCCCO | inactive: 2.22

A few values from the list.
cell-cell fusion (z-score) with O=C1NS(=O)(=O)c2ccccc21 reads inactive: 3.98
cell-cell fusion (z-score) with COC(=O)C1=C(C)NC(C)=C(C(=O)OCCN(C)Cc2ccccc2)C1c1cccc([N+](=O)[O-])c1.Cl (stereo not given) reads inactive: 4.45
cell-cell fusion (z-score) with Cn1cc[nH]c1=S reads inactive: -0.133

Source: the supplement of paper PMC8104966
